Values quoted from earlier work in patent publication US6552176B2, “Salt forms of 6-n-butylamino-6-deoxy-α-L-sorbofuranose” (G. D. Searle & Co., priority 1990, dated 2003).
At least one compound was matched to its structure with a doubt left.

Settings: cited from earlier work

## CCCCN [N-n-butylamine]
  exposure concentration intolerable for more than a few minutes: 10-25 ppm
